# Test results published in publication doi:10.1101/2020.12.22.423980.
# Results are given in words; binding and its absence hold for the method and conditions named. Some entries that bind do so weakly or less than the wild type. Tags and fused reporters may be left off the sequences shown.
# T1: Drosophila Chc fragment, amino acids 329-542, GAL4 DNA-binding domain fusion (pChc(329-542)-BD) (Drosophila) (UniProt P29742)
# T1 sequence: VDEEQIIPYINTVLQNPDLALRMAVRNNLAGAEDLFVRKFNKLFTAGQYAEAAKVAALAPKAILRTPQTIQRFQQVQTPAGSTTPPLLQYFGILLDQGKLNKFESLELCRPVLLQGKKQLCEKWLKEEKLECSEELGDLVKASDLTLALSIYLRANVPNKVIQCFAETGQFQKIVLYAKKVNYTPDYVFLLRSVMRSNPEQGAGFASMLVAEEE
# T2: Drosophila Chc fragment, amino acids 329-803, GAL4 DNA-binding domain fusion (pChc(329-803)-BD) (Drosophila) (UniProt P29742)
# T2 sequence: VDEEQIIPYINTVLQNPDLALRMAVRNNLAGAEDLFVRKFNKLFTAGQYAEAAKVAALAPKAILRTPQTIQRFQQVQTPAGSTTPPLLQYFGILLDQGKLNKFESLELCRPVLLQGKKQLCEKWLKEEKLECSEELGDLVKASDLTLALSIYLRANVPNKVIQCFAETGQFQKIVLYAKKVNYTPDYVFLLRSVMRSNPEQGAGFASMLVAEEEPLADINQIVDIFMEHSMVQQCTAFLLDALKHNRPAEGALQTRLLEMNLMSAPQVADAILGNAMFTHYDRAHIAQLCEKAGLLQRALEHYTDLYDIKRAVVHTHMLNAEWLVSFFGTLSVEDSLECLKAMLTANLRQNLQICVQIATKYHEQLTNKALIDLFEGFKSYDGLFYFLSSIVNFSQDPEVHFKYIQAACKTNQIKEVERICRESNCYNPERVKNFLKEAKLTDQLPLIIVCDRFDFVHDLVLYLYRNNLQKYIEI
# Key:
# [1] = biological target: T1, Drosophila Chc fragment, amino acids 329-542, GAL4 DNA-binding domain fusion (pChc(329-542)-BD) (Drosophila); assay: two-hybrid
# [2] = biological target: T2, Drosophila Chc fragment, amino acids 329-803, GAL4 DNA-binding domain fusion (pChc(329-803)-BD) (Drosophila); assay: two-hybrid
binding [1],binding [2],Binder
no binding,–,"Drosophila Bicaudal-D (BicD), full-length, GAL4 fusion (pBicD-AD or pBicD-BD) (protein, UniProt P16568 1-782) MSSASNNGPSADQSVQDLQMEVERLTRELDQVSSASAQSAQYGLSLLEEKSALQQKCEELETLYDNTRHELDITQEALTKFQTSQKVTNKTGIEQEDALLNESAARETSLNLQIFDLENELKQLRHELERVRNERDRMLQENSDFGRDKSDSEADRLRLKSELKDLKFRETRMLSEYSELEEENISLQKQVSSLRSSQVEFEGAKHEIRRLTEEVELLNQQVDELANLKKIAEKQMEEALETLQGEREAKYALKKELDGHLNRESMYHISNLAYSIRSNMEDNASNNSDGEEENLALKRLEADLSTELKSPDGTKCDLFSEIHLNELKKLEKQLESMESEKTHLTANLREAQTSLDKSQNELQNFMSRLALLAAHVDALVQLKKQIDVKEQGKEGGQKKDELEQQLRALISQYANWFTLSAKEIDGLKTDIAELQKGLNYTDATTTLRNEVTNLKNKLLATEQKSLDLQSDVQTLTHISQNAGQSLGSARSTLVALSDDLAQLYHLVCTVNGETPTRVLLDHKTDDMSFENDSLTAIQSQFKSDVFIAKPQIVEDLQGLADSVEIKKYVDTVSDQIKYLKTAVEHTIDMNKHKIRSEGGDALEKVNTEEMEELQEQIVKLKSLLSVKREQIGTLRNVLKSNKQTAEVALTNLKSKYENEKIIVSDTMSKLRNELRLLKEDAATFSSLRAMFAARCEEYVTQVDDLNRQLEAAEEEKKTLNQLLRLAVQQKLALTQRLEEMEMDREMRHVRRPMPAQRGTSGKSSFSTRPSSRNPASSNANPF"
–,binds,"Drosophila BicD carboxy-terminal domain (CTD; amino acids 535-782), GAL4 fusion (domain or fragment, UniProt P16568 535-782) TAIQSQFKSDVFIAKPQIVEDLQGLADSVEIKKYVDTVSDQIKYLKTAVEHTIDMNKHKIRSEGGDALEKVNTEEMEELQEQIVKLKSLLSVKREQIGTLRNVLKSNKQTAEVALTNLKSKYENEKIIVSDTMSKLRNELRLLKEDAATFSSLRAMFAARCEEYVTQVDDLNRQLEAAEEEKKTLNQLLRLAVQQKLALTQRLEEMEMDREMRHVRRPMPAQRGTSGKSSFSTRPSSRNPASSNANPF"
